Results taken from the supplement of paper PMC11542785.
Structures can show the parent of a compound that is named as a salt. The list shows a part of the results. Repeats are few or missing, and single values can be far off.

system: Drosophila melanogaster DPAGT1 (Alg7) RNAi eye model; assay: eye size Z-score vs DMSO-treated DPAGT1 model flies; higher = larger eye (suppression of DPAGT1 phenotype); details: 5 uM

| SMILES | eye size Z-score |
| --- | --- |
| COc1ccc(-c2cc(=O)c3c(O)cc(O[C@@H]4O[C@H](CO[C@@H]5O[C@@H](C)[C@H](O)[C@@H](O)[C@H]5O)[C@@H](O)[C@H](O)[C@H]4O)cc3o2)cc1O [Diosmin] | 0.36 |
| Cn1c(=O)cc(N2CCC[C@@H](N)C2)n(Cc2ccccc2C#N)c1=O [Alogliptin benzoate] | -0.13 |
| CCCCCCCN(CC)CCCC(O)c1ccc(NS(C)(=O)=O)cc1 (centres undefined) [Ibutilide fumarate] | 0.64 |
| c1ccc2[nH]c(-c3cscn3)nc2c1 [Tiabendazole] | 0.54 |
| OC[C@H]1O[C@@H](n2cnc3cncnc32)[C@H](O)[C@@H]1O [Nebularine] | -0.4 |
| CC1CS(=O)(=O)CCN1/N=C/c1ccc([N+](=O)[O-])o1 (centres undefined) [Nifurtimox] | -0.95 |
| COc1ccc(C(=O)c2ccc(C)cc2)c(O)c1 [Mexenone] | -0.56 |
| CN1CC2c3ccccc3Oc3ccc(Cl)cc3C2C1 (centres undefined) [Asenapine maleate] | -0.56 |
| COc1cc(C(=O)NC2CCCNC2)cc(OC)c1OC (centres undefined) [Troxipide] | 0.81 |
| C[C@]12CC[C@@H]3c4ccc(O)cc4CC[C@H]3[C@@H]1CCC2=O [Estrone] | -0.44 |
| CN(C)[C@@H]1C(O)=C(C(N)=O)C(=O)[C@@]2(O)C(O)=C3C(=O)c4c(O)ccc(Cl)c4[C@@](C)(O)[C@H]3C[C@@H]12 [Chlortetracycline hydrochloride] | 1.02 |
| CC(=O)N(CC(C)C(=O)O)c1c(I)cc(I)c(N)c1I (centres undefined) [Iocetamic acid] | -0.98 |
| O=C(O)CCC(=O)Nc1ccc(S(=O)(=O)Nc2nccs2)cc1 [Succinylsulfathiazole] | 0.53 |
| COc1cnc(NS(=O)(=O)c2ccc(N)cc2)nc1 [Sulfameter] | 0.15 |
| Cc1cccc(CN2CCN(C(c3ccccc3)c3ccc(Cl)cc3)CC2)c1 (centres undefined) [Meclozine dihydrochloride] | -0.06 |
| CCCCC(C)(O)C/C=C/[C@H]1[C@H](O)CC(=O)[C@@H]1CCCCCCC(=O)OC (mixture of isomers) [Misoprostol] | -1.2 |
| CNCCC(Oc1ccccc1OC)c1ccccc1 (centres undefined) [Nisoxetine hydrochloride] | -1.09 |
| COc1ccccc1O [Guaiacol] | 0.21 |
| CCOC(=O)C1=C[C@]2(CC)CCCN3CCc4c(n1c1ccccc41)[C@@H]32 [Vinpocetine] | 0.5 |
| COc1ccc2cc([C@@H](C)C(=O)O)ccc2c1 [(R) Naproxen sodium salt] | -0.18 |
| Nc1nc(=O)c2c([nH]1)NC[C@@H](CNc1ccc(C(=O)N[C@@H](CCC(=O)O)C(=O)O)cc1)N2C=O [Folinic acid calcium salt] | -0.54 |
| CC1(C)NC(=O)N(c2ccc([N+](=O)[O-])c(C(F)(F)F)c2)C1=O [Nilutamide] | 0.12 |
| CCCCC(CC)CNC(=N)NC(=N)NCCCCCCNC(=N)NC(=N)NCC(CC)CCCC (centres undefined) [Alexidine dihydrochloride] | 0.02 |
| COC(=O)[C@@H]1[C@H]2C[C@H]3c4[nH]c5ccccc5c4CCN3C[C@@H]2CC[C@@H]1O [Yohimbine hydrochloride] | 0.06 |
| O=C1CCc2cc(OCCCCc3nnnn3C3CCCCC3)ccc2N1 [Cilostazol] | -0.39 |

| SMILES | eye size Z-score |
| --- | --- |
| CCS(=O)(=O)CCn1c([N+](=O)[O-])cnc1C [Tinidazole] | 0.1 |
| CCCCOc1cc(C(=O)NCCN(CC)CC)c2ccccc2n1 [Dibucaine] | 0.63 |
| O=P(O)(O)C(Cl)(Cl)P(=O)(O)O [Clodronate disodium] | 0.82 |
| C/C(=C(\CCOC(=O)c1ccccc1)SS/C(CCOC(=O)c1ccccc1)=C(/C)N(C=O)Cc1cnc(C)nc1N)N(C=O)Cc1cnc(C)nc1N [Bisbentiamine] | -0.14 |
| CCC1=C(C)CN(C(=O)NCCc2ccc(S(=O)(=O)NC(=O)N[C@H]3CC[C@H](C)CC3)cc2)C1=O [Glimepiride] | 1.05 |
| OCc1cc(C(O)CNCCCCCCOCCCCc2ccccc2)ccc1O (centres undefined) [Salmeterol] | 0.5 |
| CC(=O)OCC(=O)[C@@]12N=C(C)O[C@@H]1C[C@H]1[C@@H]3CCC4=CC(=O)C=C[C@]4(C)[C@H]3[C@@H](O)C[C@@]12C [Deflazacort] | 0.15 |
| O=C(O)Cc1sc(-c2ccccc2)nc1-c1ccc(Cl)cc1 [Fentiazac] | 1.32 |
| CNCCC(Oc1ccc(C(F)(F)F)cc1)c1ccccc1 (centres undefined) [Fluoxetine hydrochloride] | 0.5 |
| Cc1nc2n(c(=O)c1CCN1CCC(c3noc4cc(F)ccc34)CC1)CCCC2 [Risperidone] | 1.29 |
| CC(=O)Nc1ccc(CC(=O)O)cc1 [Actarit] | 0.31 |
| C[C@@H](CN1CC(=O)NC(=O)C1)N1CC(=O)NC(=O)C1 [Dexrazoxane hydrochloride] | -0.46 |
| CC(=O)N[C@H]1[C@H]([C@H](O)[C@H](O)CO)OC(C(=O)O)=C[C@@H]1NC(=N)N [Zanamivir] | -0.49 |
| CCN1CC(CCN2CCOCC2)C(c2ccccc2)(c2ccccc2)C1=O (centres undefined) [Doxapram hydrochloride] | 0.52 |
| O=C(c1cc(O)c(O)c(O)c1)c1ccc(O)c(O)c1O [Exifone] | 0.56 |
| CCCCNC(=O)NS(=O)(=O)c1ccc(C)cc1 [Tolbutamide] | 1.82 |
| O=C(O)c1cc(-c2ccc(F)cc2F)ccc1O [Diflunisal] | 0.78 |
| CC(=O)[C@H]1CC[C@H]2[C@@H]3C[C@H](C)C4=CC(=O)CC[C@]4(C)[C@H]3[C@@H](O)C[C@]12C [Medrysone] | 0.72 |
| CCOC(=O)OC(C)OC1=C(C(=O)Nc2ccccn2)N(C)S(=O)(=O)c2ccccc21 (centres undefined) [Ampiroxicam] | -0.17 |
| CCOc1ccccc1OCCN[C@H](C)Cc1ccc(OC)c(S(N)(=O)=O)c1 [(R)-Tamsulosin hydrochloride] | 0.46 |
| CCn1cc(C(=O)O)c(=O)c2cnc(N3CCCC3)nc21 [Piromidic acid] | -0.61 |
| O=S(=O)(O)CCS [Coenzyme M] | 0.14 |
| CC(C)Nc1ncccn1 [Isaxonine] | 0.18 |
| CC(C)(C)NC[C@H](O)c1ccc(O)c(CO)c1 [Levalbuterol hydrochloride] | -0.92 |

Pulled by compound from above (three):

| SMILES | eye size Z-score |
| --- | --- |
| CC(C)(C)NC[C@H](O)c1ccc(O)c(CO)c1 [Levalbuterol hydrochloride] | -0.92 |
| O=P(O)(O)C(Cl)(Cl)P(=O)(O)O [Clodronate disodium] | 0.82 |
| CC(=O)N[C@H]1[C@H]([C@H](O)[C@H](O)CO)OC(C(=O)O)=C[C@@H]1NC(=N)N [Zanamivir] | -0.49 |
